{
  "sequences": {"note": "Protein sequences, listed by entry. Tags and fused reporters are not part of them. Residues count along the entry.", "UniProt P02769, residues 25-607": "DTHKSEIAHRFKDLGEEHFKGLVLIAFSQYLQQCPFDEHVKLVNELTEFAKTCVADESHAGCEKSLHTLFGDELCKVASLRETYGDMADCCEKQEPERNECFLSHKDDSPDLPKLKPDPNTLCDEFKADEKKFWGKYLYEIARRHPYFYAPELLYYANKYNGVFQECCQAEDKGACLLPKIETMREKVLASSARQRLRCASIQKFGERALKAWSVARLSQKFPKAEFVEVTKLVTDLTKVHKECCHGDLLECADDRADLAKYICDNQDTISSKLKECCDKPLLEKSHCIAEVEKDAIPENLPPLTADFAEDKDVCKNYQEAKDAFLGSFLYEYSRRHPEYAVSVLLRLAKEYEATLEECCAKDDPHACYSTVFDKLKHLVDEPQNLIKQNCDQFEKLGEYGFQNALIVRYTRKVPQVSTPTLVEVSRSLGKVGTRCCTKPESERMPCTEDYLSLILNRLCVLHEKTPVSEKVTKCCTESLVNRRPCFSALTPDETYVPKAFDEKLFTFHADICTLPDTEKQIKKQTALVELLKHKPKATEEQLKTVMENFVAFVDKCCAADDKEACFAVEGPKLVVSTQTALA"},
  "source": "paper PMC11352759",
  "biological_target": "Bovine Serum Albumin (bovine) (UniProt P02769)",
  "assay": "graphene field-effect transistor (gFET) with enzymatic read-out (urea hydrolysis); streptavidin (or BSA as control) attached to the gFET surface; incubated with b-urease 5-360 nM for 13 min, washed; slope of IDS vs time after 1 mM urea (VDS 50 mV, VGS -250 mV, 0.1 mM HEPES, 10 mM KCl, pH 6); Hill-like fit; operational constant; both purified",
  "note": "These are yes or no findings as the source states them, for the method shown.",
  "data": [
    {"substance": "biotinylated urease (from UniProt P07374 1-840) (enzyme)", "values": [
      {"measurement": "binding", "value": "no binding"}
    ]}
  ]
}
